Earlier results, collected in patent US20080253985A1, “Compositions for Lowering Serum Cholesterol and/or Triglycerides” (priority 2005, published 2008).
Some entries share one result that the patent states for a list of compounds.

Conditions: patients with genotype-confirmed hoFH; maximal dose of statin, 80 mg/day

For CC(C)c1c(C(=O)Nc2ccccc2)c(-c2ccccc2)c(-c2ccc(F)cc2)n1CCC(O)CC(O)CC(=O)O (stereo not shown) [atorvastatin, 7-[2-(4-fluorophenyl)-5-(1-methylethyl)-3-phenyl-4-(phenylcarbamoyl)-1H-pyrrol-1-yl]-3,5-dihydroxy-heptanoic acid], the “mean LDL-C reduction” value is given as “less than 20%”.
